Changes are numbered by the printed parent chain. No constants are given. Whether binding was seen depends on the method and setting. Some entries that bind do so weakly or less than the wild type.
B1: MAB-16-0262 (antibody, V domains shown)
VH: EVQLEESGGGLVQPGGSLRLSCAASGFDFSTNAMCWVRQAPGKGLEWVACIAAGSSIITYYASWAKGRFTISKDTSKTTLYLQMNSLRAEDTAVYFCARGLSRFALWGQGTLVTVSS
VL: DIVMTQSPSSLSASVGDRVTITCQASQSISSYLSWYQQKPGQAPKLLIYLTSTLASGVPSRFSGSGSGTDFTLTISSLQPEDFATYYCQGYYSSSSYVSNGFGQGTKVVIK
B2: MAB-16-0451 (antibody, V domains shown)
VH: B1 VH with T31S, A33T, A52Y, I57G, I58S, T75I, V94T, A105S
VL: DIVMTQSPSSLSASVGDRVTITCQASQSISNYLAWYQQKPGQAPKLLIYDASKLASGVPSRFSGSGSGTDFTLTISSLQPEDFATYYCQGGDYYGSSYVVAFGGGTKVVIK
B3: MAB-16-0464 (antibody, V domains shown)
VH: EVQLEESGGGLVQPGGSLRLSCAASGFDFSSNAMSWVRQAPGKGLEWVGTIYAGSNGNTDYASWAKGRFTISKDTSKTTLYLQMNSLRAEDTATYFCARGASYFTLWGQGTLVTVSS
VL: DIVMTQSPSSLSASVGDRVTITCQASESVVSNNRLAWYQQKPGQAPKLLIYLASTLPSGVPSRFSGSGSGTDFTLTISSLQPEDFATYYCAGYKSSSTDGTAFGQGTKVVIK
B4: MAB-16-0267 (antibody, V domains shown)
VH: EVQLEESGGDLVQPGASLRLSCAASGFDFNSNAMSWVRQAPGKGLEWVASIYAGGSGSTYYASWAKGRFTISKDTSKTTLYLQMNSLRAEDTATYFCARGITRLPLWGQGTLVTVSS
VL: DIQMTQSPSSLSASVGDRVTITCQASQSISSYLAWYQQKPGQAPKLLIYDASKLASGVPSRFSGSGSGTDFTLTISSLQPEDFATYYCQGTYYGSTTISAFGQGTKVVIK
B5: MAB-16-0406 (antibody, V domains shown)
VH: EVQLEESGGGLVQPGGSLRLSCAASGIDFSRYYYMCWVRQAPGKGPEWVACYSNGDGSTYYASWAKGRFTISKDTSKTTLYLQMNSLRAEDTATYFCARGADYSAGAAAFNLWGQGTLVTVSS
VL: DIQMTQSPSSLSASVGDRVTITCQASESIGNALVWYQQKPGQAPKLLIYRASILASGVPSRFSGSGSGTDFTLTISSLQPEDFATYYCQDYYGSSTEYNTFGQGTKVVIK
B6: MAB-16-0346 (antibody, V domains shown)
VH: B3 VH with S31T, M34V, T50S, Y52S, N56S, N58S, D60Y, A101Y, S102T, F104L
VL: DIVMTQSPSSLSASVGDRVTITCQASHSISSTYLSWYQQKPGQAPKLLIYRASTLASGVPSRFSGSGSGTDFTLTISSLQPEDFATYYCQYTDYGSSYVSTFGQGTKVVIK
B7: MAB-16-0400 (antibody, V domains shown)
VH: EVQLEESGGGLVQPGGSLRLSCAASGIDFSRYFYMCWVRQAPGKGLEWVACIGPGVSGDTYYASWAKGRFTISGDTSKTTLYLQMNSLRAEDTATYFCARGVDYTYGDAGAAFNLWGQGTLVTVSS
VL: DIVMTQSPSSLSASVGDRVTITCQASQSISSYLAWYQQKPGQAPKLLIYRASILASGVPSRFSGSGSGTDFTLTISSLQPEDFATYYCQTYYSSRTYSYGSPNAFGQGTKVVIK
B8: MAB-16-0489 (antibody, V domains shown)
VH: EVQLEESGGGLVQPGASLRLSCAASGIDFSRYFYVCWVRQAPGKGLEWVGCFANHDDSIYYAGWMNGRFTISKDTSKTTLYLQMNSLRAEDTATYFCARGVDYTVGYGGAAFNLWGQGTLVTVSS
VL: DIVMTQSPSSLSASVGDRVTITCQASQSIGSYLSWYQQKPGQAPKLLIYRATTLASGVPSRFSGSGSGTDFTLTISSLQPEDFATYYCQSYYRDSSSSAFGQGTKVVIK
B9: MAB-16-0484 (antibody, V domains shown)
VH: B5 VH with M35I, Y52F, S53A, A105G
VL: B5 VL with E27Q, G30S, N31S, A32R, V34A, I53T, T100A
B10: MAB-16-0283 (antibody, V domains shown)
VH: EVQLEESGGDLVQPGASLRLSCAASGFSFSFSYWICWVRQAPGKGLELVSCIYTTSGSTYYASWAKGRFTISIDNSKTTLYLQMNSLRAEDTATYFCARSSGVSYPSYFHLWGQGTLVTVSS
VL: DIQMTQSPSSLSASVGDRVTITCQASQSISSYLAWYQQKPGQAPKLLIYSASKLPSGVPSRFSGSGSGTDFTLTISSLQPEDFATYHCQTYYYSSSSSYDYGFGQGTKVVIK
B11: MAB-16-0325 (antibody, V domains shown)
VH: B3 VH with D28S, L45P, G49V, N56S, N58S, D60Y, S102T, F104L
VL: DIVMTQSPSSLSASVGDRVTITCQASQSISNYLSWYQQKPGQAPKLLIYRASTLPSGVPSRFSGSGSGTDFTLTISSLQPEDFATYYCQGYYYSGTTYDSTAFGQGTKVVIK
B12: MAB-16-0377 (antibody, V domains shown)
VH: EVQLEESGGGLVQPGASLRLSCAASGFSFSGYWMCWVRQAPGKGLEWVGCIYTNSGVTYYANWAKGRFTISKDTSKTTLYLQMNSLRAEDTATYFCARGGAIYNDYDYAFYYSLWGQGTLVTVSS
VL: B1 VL with S34A, L50K, T51A, G90S, S93G, Y97I, V98S, S99Y, G101A
B13: MAB-16-0386 (antibody, V domains shown)
VH: B4 VH with A24V, N30S, A49S, G55S, T75A, I101V
VL: B4 VL with Q3V, K53T, Y92V, T96S
B14: MAB-16-0388 (antibody, V domains shown)
VH: B3 VH with E5V, T50I, N56S, N58S, D60Y, S102T, F104I
VL: DIVMTQSPSSLSASVGDRVTITCQASQSIGSYLAWYQQKPGQAPKLLIYRASTLASGVPSRFSGSGSGTDFTLTISSLQPEDFATYYCQGYYYSTTTTTYDSSAFGQGTKVVIK

Amino acid sequences for entries named in this document (tags omitted). A change or cut given only in a name is not applied to a line headed by its entry. Chains listed by the source or under a name are the forms on record and can include a tag or linker. Residues count along the entry.
soluble cynomolgus monkey CD40 monomeric protein (Acro Biosystems) (G7PG38, form named): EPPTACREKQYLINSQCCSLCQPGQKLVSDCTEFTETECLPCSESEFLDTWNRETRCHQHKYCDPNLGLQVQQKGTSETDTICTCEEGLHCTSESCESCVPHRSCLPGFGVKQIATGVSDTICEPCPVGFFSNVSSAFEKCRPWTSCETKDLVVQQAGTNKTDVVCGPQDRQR
UniProt P25942: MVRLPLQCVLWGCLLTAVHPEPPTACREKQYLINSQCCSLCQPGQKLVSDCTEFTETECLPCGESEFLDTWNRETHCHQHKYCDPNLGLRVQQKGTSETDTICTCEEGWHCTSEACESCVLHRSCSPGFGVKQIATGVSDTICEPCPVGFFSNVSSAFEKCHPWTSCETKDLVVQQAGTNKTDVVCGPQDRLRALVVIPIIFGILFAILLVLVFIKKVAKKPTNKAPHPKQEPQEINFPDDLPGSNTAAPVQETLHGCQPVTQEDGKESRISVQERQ
cell-expressed CD40: residues 21-277 of P25942
HIS-tagged CD40 recombinant protein (Acro Biosystems): residues 21-193 of P25942

target: soluble cynomolgus monkey CD40 monomeric protein (Acro Biosystems) (cynomolgus monkey) (UniProt G7PG38); assay: SPR Biacore T200, antibody captured via anti-human Fc

binding, binds:
B1, B2, B3

target: HIS-tagged CD40 recombinant protein (Acro Biosystems) (UniProt P25942); assay: ELISA: coated antibody captures HIS-CD40 (330 ng/ml) preincubated with anti-HIS-peroxidase, no competing antibody

binding, binds:
B1, B4, B5, B2, B3

target: cell-expressed CD40 (UniProt P25942); assay: pulse chase assay on HEK-Blue-CD40L cells, antibody 0.8 µg/ml for 15 min, Alexa-488 secondary antibody, high content imaging

binding, binds:
B1, B4, B6, B5, B7, B2, B8, B9, B3, B10, B11, B12, B13, B14

target: cell-expressed CD40 (UniProt P25942); assay: flow cytometry on HEK-Blue-CD40L cells preincubated with antibody at its EC90 concentration, then CD40L-mouse IgG2a Fc 0 to 10000 ng/ml; Alexa Fluor 488 anti-human IgG [Detection of anti-CD40 antibody binding]

binding, binds:
B1, B5, B2, B3

Source: patent publication US20240010741A1
